## Library screen at single concentrations

Source: ChEMBL document CHEMBL3988442, “University of Dundee, Small-Polar-MMV Screening Library” (2021).

T. brucei: 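Whole-parasite assay of Trypanosoma brucei over 72 hours; the read-out is not stated. Tested at 30 µM. Higher reads as stronger inhibition (inferred: compounds with an IC50 in retests scored well above the rest). Values scatter widely below zero; nearly all retest evidence comes from the higher of the two concentrations used. Of about 64,000 compounds tested this way, about 940 (1.5%) reached 50% or more in at least one test.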
Leishmania in macrophages: 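Cell assay of Leishmania donovani living inside macrophages; the read-out is not stated. Tested at 30 µM. Direction is inferred from retests: higher values go with stronger inhibition. Of about 69,000 compounds tested this way, about 1,000 (1.5%) reached 50% or more in at least one test.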
Toxoplasma: 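Assay of Toxoplasma gondii numbers, read through their beta-galactosidase reporter with a colour substrate. Compounds at 10 µM. Higher reads as fewer parasites (inferred from which compounds were picked for retests). Of about 67,000 compounds tested this way, about 260 (0.38%) reached 50% or more in at least one test.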

Results are given as percent effect.
How 0% and 100% were set is not recorded. Most values in the screen are low, and negative values occur.
Compounds were drawn at random from those tested, without regard to their results.
Two or more numbers in one place are separate tests of the same structure; such repeats can differ widely.
A dash means the value is not listed here; it may have been measured.

structure	T. brucei	Leishmania in macrophages	Toxoplasma
O=C(NCC1CCOC1)c1cc(-c2ccc(F)cc2)[nH]n1 (stereo not shown)	-18.77%	21.93%	-0.8347%
CCOC(=O)CCNC(=O)N1CCN(c2nc3ccccc3n2C)CC1	38.54%	13.68%	-3.326%
CC(=O)N1CCCC1c1nc(C)c2c(n1)N(Cc1ccccn1)CCC2 (stereo not shown)	5.564%	14.66%	8.592%
N#Cc1ccccc1N1CCN(CCC(=O)N2CCOCC2)CC1	-3.327%	-7.179%	-11.17%
CN(C)C1CCCN(C(=O)NCCc2cc(F)ccc2F)C1 (stereo not shown)	-13.53%	30.01%	18.73%
CCc1ccc(C(=O)N2CCCC(CNS(C)(=O)=O)C2)o1 (stereo not shown)	-22.26%	5.462%	13.93%
COc1ccccc1OCC(=O)NS(=O)(=O)c1cc(F)ccc1F	-16.24%	5.687%	-1.962%
Cc1occc1C(=O)Nc1ccc(C(=O)NC[C@H]2CCCN2)cc1	-7.697%	-5.468%	3.79%
COc1ccc2[nH]nc(CN3CCC(C(=O)N4CCCCC4)CC3)c2c1	-8.284%	25.54%	3.285%
CN1CCCC(Cc2cncc(Br)c2)CC1 (stereo not shown)	41.16%	48.81%	9.545%
CC(C)(C)CC(=O)NC[C@H]1OC[C@@H](NCc2ccccn2)[C@@H]1O	-1.799%	18.3%	-1.522%
Cc1nccn1-c1cccc(C2CCCN2)n1.Cl (stereo not shown)	5.105%	20.45%	8.873%
Cn1ccc(C(=O)NCc2ccc(N3CCCC3)nc2)cc1=O	-10.47%	4.557%	3.291%
COc1ccc(CN2CC(O)CN(C(=O)OCC(C)(C)C)CC2=O)cc1 (stereo not shown)	-14.79%	-3.044%	-8.397%
CN(CCO)C[C@@H]1CN(C(=O)Cc2ccc3ccccc3c2)C[C@@H]1CO	-5.404%	-1.562%	15.89%
O=C(O)C(F)(F)F.[H][C@]12CCN(c3ccccn3)[C@@]1([H])CC[C@@H](COCC(=O)N(C)C)O2	-26.23%	-16.21%	3.482%
Cc1ccc(C(=O)NS(=O)(=O)Cc2ccon2)c(C)c1	-49.79%	6.689%	23.3%
CC(Nc1c(F)cc(C#N)cc1F)c1cccc(S(N)(=O)=O)c1 (stereo not shown)	39.53%	19.13%	8.605%
Cc1cccnc1NCCNC(=O)c1cnc(-c2cccs2)nc1O	-4.334%	22.97%	9.689%
Cc1cc(N2CCN(CC(=O)N(C)C)CC2)nc(-c2ccncc2)n1	-9.924%	16.26%	-0.3519%
CCn1nc(C)c2nc(C(C)C)nc(N(C)Cc3ccco3)c21	-15.54%	-34.94%	2.294%
Cc1cc(NCCCNS(C)(=O)=O)nc2ccccc12	-31.05%	-8.515%	4.843%
CCn1ccnc1CN1CCN(CCOc2cccc(C#N)c2)CC1	15.13%	33.45%	-17.93%
Cc1cnc(N2CCC3(CC2)CC(N(C)Cc2ccncc2)C3)nc1.O=C(O)C(F)(F)F.O=C(O)C(F)(F)F	-15.64%	-19.25%	-7.251%
O=C(NCC(CO)Cc1cccc(OC(F)(F)F)c1)c1cnccn1 (stereo not shown)	-37.03%	23.04%	28.99%
O=C1CN(C(=O)CN(CC2CCC2)CC(F)(F)F)CCN1	-4.253%	-5.935%	-5.603%
NC1(CN2CCOCC2)CCCCC1	-	-6.016%	-
Cc1cc(C)n(CC2CCCN2C(=O)c2ccc3nnc(C)n3c2)n1 (stereo not shown)	-5.88%	14.33%	-0.1797%
Cc1oc(CN(C)C(=O)c2ccc(Br)cc2)cc1C(=O)O	-19.99%	-3.9%	-6.285%
CC(C)c1nccn1Cc1cc(C(=O)NCC(F)(F)F)n[nH]1	-33.62%	11.2% & -25.39%	-3.298%
CCc1ccccc1OC1CN(C(=O)c2ccsc2)C1	-1.354%	-4.638%	4.309%
COCCCNC(=O)Cc1cc(-c2ccc3c(c2)OCO3)on1	-61.79%	14.99%	8.873%
Cc1nc(NC(=O)N(C)Cc2ccsc2)nn1C	8.247%	31.87%	6.233%
O=C(O)C(F)(F)F.O=C(c1cnccn1)N1CCOC2(CCCN(c3ncccc3F)C2)C1 (stereo not shown)	-33.25%	4.464%	-20.19%
CNC(=O)CC1CCN(Cc2nc(-c3ccc(SC)cc3)oc2C)CC1	15.19%	37.32%	-7.271%
COc1cc(C(=O)NC(C)(C)CN2CCN(C)CC2)c2ccccc2n1	-21.29%	-2.359%	16.82%
CCn1nc(C)c2nc(C(C)C)nc(N3CCCCC3)c21	-28.16%	27.35%	3.012%
CC(C)Nc1ncccc1C(=O)NC1CC(=O)N(CC(F)(F)F)C1 (stereo not shown)	-14.44%	6.314%	4.74%
Cc1ccnn1CCC(=O)N1CCC(c2cnccn2)CC1	-0.2531%	19.19% & 7.567%	-3.032%
Cc1cnn(CC(C)NCc2ccc(OCc3noc(C)n3)cc2)c1 (stereo not shown)	-12.4%	22.62%	2.786%

Repeated from the top, 2 entries:

| structure | T. brucei | Leishmania in macrophages | Toxoplasma |
|---|---|---|---|
| `O=C(NCC1CCOC1)c1cc(-c2ccc(F)cc2)[nH]n1` (stereo not shown) | -18.77% | 21.93% | -0.8347% |
| `CCOC(=O)CCNC(=O)N1CCN(c2nc3ccccc3n2C)CC1` | 38.54% | 13.68% | -3.326% |